# Experimental data as given in the supplement of paper PMC6411743.
# ± gives the standard deviation of the averaged measurements. Some of the results follow.
# How the values were obtained:
# Experiment in all cases: NP40-soluble protein abundance relative to vehicle (solubility fold change) (ratio); higher = more soluble protein in presence of GTP
# TXNL1 = target: T1, TXNL1 (UniProt O43396)
# T1 sequence (whole entry): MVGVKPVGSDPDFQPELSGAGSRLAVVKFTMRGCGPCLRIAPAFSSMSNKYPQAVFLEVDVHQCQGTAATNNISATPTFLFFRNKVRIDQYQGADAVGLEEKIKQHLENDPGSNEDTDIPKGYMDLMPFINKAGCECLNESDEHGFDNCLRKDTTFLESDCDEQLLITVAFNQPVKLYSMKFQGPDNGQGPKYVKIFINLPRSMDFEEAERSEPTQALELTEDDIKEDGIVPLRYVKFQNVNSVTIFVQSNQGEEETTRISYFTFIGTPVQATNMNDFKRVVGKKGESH
# Outline: (§1)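 Across three independent experiments, values are fold changes against the detergent-processed vehicle for each replicate, based on vsn-normalised intensities. The samples were Jurkat crude lysate treated with eight concentrations (0.1 to 10 mM) for 10 min at room temperature and then 3 min at 37 °C. Lysate was solubilised with 0.8% NP40 and benzonase, ultracentrifuged, and the supernatant analysed by TMT-labelled LC-MS/MS.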
# [1] = target: T2, UniProt O14966 and related entries
# T2 sequence (whole entry): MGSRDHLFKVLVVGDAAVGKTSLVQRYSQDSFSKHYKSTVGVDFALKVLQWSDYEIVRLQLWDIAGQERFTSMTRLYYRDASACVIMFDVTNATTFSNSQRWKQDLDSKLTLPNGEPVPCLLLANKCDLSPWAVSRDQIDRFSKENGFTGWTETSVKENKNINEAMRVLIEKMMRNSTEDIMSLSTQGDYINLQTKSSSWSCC
# Outline: as §1
# UniProt O15091 = target: T3, UniProt O15091
# T3 sequence (whole entry): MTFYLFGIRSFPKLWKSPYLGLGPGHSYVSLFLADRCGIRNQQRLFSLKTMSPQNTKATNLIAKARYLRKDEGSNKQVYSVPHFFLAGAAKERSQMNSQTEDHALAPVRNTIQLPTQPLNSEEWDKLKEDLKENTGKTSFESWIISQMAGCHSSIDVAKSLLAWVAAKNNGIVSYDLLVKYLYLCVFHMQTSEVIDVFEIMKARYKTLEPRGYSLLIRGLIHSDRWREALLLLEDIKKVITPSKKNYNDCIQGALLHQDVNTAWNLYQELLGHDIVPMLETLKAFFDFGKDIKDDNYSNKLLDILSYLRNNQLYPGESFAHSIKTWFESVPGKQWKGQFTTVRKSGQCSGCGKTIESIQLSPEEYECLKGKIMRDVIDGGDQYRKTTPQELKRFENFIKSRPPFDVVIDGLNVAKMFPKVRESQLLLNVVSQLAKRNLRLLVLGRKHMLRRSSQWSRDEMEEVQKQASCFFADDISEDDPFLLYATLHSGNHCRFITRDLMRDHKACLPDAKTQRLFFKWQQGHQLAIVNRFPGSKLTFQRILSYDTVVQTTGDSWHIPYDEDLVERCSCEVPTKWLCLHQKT
# Outline: as §1
# [2] = target: T4, UniProt O15173 and related entries
# T4 sequence (whole entry): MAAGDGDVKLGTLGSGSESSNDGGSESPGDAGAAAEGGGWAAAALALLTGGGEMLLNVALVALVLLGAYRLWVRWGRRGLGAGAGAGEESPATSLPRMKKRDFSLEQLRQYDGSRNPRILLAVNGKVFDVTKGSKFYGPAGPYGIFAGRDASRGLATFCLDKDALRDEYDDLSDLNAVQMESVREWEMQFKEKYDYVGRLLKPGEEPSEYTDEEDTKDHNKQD
# Outline: as §1
# [3] = target: T5, UniProt O43402 and related entries
# T5 sequence (whole entry): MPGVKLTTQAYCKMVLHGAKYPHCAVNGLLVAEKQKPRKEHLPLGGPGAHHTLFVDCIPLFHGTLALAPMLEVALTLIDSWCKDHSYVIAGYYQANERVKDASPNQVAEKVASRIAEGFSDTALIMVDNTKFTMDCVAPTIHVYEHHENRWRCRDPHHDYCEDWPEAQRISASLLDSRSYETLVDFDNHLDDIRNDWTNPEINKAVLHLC
# Outline: as §1
# [4] = target: T6, UniProt O43663 and related entries
# T6 sequence (whole entry): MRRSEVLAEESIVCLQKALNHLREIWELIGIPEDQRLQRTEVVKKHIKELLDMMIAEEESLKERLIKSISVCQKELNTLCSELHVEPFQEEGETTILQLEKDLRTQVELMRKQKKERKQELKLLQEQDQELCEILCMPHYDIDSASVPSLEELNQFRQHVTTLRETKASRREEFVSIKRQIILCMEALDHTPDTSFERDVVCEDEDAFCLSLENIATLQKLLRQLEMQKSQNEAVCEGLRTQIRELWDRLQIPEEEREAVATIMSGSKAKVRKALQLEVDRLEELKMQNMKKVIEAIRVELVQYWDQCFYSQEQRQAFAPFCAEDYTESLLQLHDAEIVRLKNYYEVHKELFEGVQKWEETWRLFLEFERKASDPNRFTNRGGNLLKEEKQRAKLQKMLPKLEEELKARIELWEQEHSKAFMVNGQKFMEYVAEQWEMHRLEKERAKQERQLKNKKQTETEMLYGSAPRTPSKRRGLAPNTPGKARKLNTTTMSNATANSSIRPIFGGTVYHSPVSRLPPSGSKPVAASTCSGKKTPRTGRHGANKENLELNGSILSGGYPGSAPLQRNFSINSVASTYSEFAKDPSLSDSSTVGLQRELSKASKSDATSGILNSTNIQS
# Outline: as §1
# [5] = target: T7, UniProt O60671 and related entries
# T7 sequence (whole entry): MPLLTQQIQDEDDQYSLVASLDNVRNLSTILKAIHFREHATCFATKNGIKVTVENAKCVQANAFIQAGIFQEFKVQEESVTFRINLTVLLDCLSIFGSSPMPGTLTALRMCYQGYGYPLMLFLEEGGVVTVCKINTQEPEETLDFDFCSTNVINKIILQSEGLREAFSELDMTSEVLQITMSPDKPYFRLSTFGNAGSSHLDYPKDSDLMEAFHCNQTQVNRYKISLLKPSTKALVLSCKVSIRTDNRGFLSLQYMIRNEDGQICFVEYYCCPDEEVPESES
# Outline: as §1
compound,measurement,setting,value
Nc1nc2c(ncn2[C@@H]2O[C@H](COP(=O)(O)OP(=O)(O)OP(=O)(O)O)[C@@H](O)[C@H]2O)c(=O)[nH]1 [guanosine triphosphate],NP40-soluble protein abundance,TXNL1; concentration: 0.1mM,0.993 ± 0.02
same,NP40-soluble protein abundance,TXNL1; concentration: 0.5mM,1.03 ± 0.064
same,NP40-soluble protein abundance,TXNL1; concentration: 1mM,1.02 ± 0.042
same,NP40-soluble protein abundance,TXNL1; concentration: 2mM,1.01 ± 0.07
same,NP40-soluble protein abundance,TXNL1; concentration: 4mM,1 ± 0.052
same,NP40-soluble protein abundance,TXNL1; concentration: 6mM,1.01 ± 0.046
same,NP40-soluble protein abundance,TXNL1; concentration: 8mM,1 ± 0.044
same,NP40-soluble protein abundance,TXNL1; concentration: 10mM,1.01 ± 0.054
same,NP40-soluble protein abundance,[1]; concentration: 0.1mM,0.944 ± 0.023
same,NP40-soluble protein abundance,[1]; concentration: 0.5mM,0.929 ± 0.11
same,NP40-soluble protein abundance,[1]; concentration: 1mM,0.842 ± 0.038
same,NP40-soluble protein abundance,[1]; concentration: 2mM,0.841 ± 0.07
same,NP40-soluble protein abundance,[1]; concentration: 4mM,0.835 ± 0.018
same,NP40-soluble protein abundance,[1]; concentration: 6mM,0.858 ± 0.042
same,NP40-soluble protein abundance,[1]; concentration: 8mM,0.8412 ± 0.0043
same,NP40-soluble protein abundance,[1]; concentration: 10mM,0.856 ± 0.11
same,NP40-soluble protein abundance,UniProt O15091; concentration: 0.1mM,1.04 ± 0.026
same,NP40-soluble protein abundance,UniProt O15091; concentration: 0.5mM,1 ± 0.041
same,NP40-soluble protein abundance,UniProt O15091; concentration: 1mM,0.9614 ± 0.0086
same,NP40-soluble protein abundance,UniProt O15091; concentration: 2mM,0.979 ± 0.066
same,NP40-soluble protein abundance,UniProt O15091; concentration: 4mM,0.999 ± 0.046
same,NP40-soluble protein abundance,UniProt O15091; concentration: 6mM,0.971 ± 0.039
same,NP40-soluble protein abundance,UniProt O15091; concentration: 8mM,0.9685 ± 0.0064
same,NP40-soluble protein abundance,UniProt O15091; concentration: 10mM,0.969 ± 0.036
same,NP40-soluble protein abundance,[2]; concentration: 0.1mM,0.944 ± 0.082
same,NP40-soluble protein abundance,[2]; concentration: 0.5mM,0.83 ± 0.056
same,NP40-soluble protein abundance,[2]; concentration: 1mM,0.954 ± 0.067
same,NP40-soluble protein abundance,[2]; concentration: 2mM,0.905 ± 0.018
same,NP40-soluble protein abundance,[2]; concentration: 4mM,0.924 ± 0.025
same,NP40-soluble protein abundance,[2]; concentration: 6mM,0.883 ± 0.027
same,NP40-soluble protein abundance,[2]; concentration: 8mM,0.882 ± 0.068
same,NP40-soluble protein abundance,[2]; concentration: 10mM,0.878 ± 0.047
same,NP40-soluble protein abundance,[3]; concentration: 0.1mM,0.966 ± 0.074
same,NP40-soluble protein abundance,[3]; concentration: 0.5mM,0.957 ± 0.093
same,NP40-soluble protein abundance,[3]; concentration: 1mM,0.923 ± 0.095
same,NP40-soluble protein abundance,[3]; concentration: 2mM,0.92 ± 0.042
same,NP40-soluble protein abundance,[3]; concentration: 4mM,0.958 ± 0.073
same,NP40-soluble protein abundance,[3]; concentration: 6mM,0.906 ± 0.096
same,NP40-soluble protein abundance,[3]; concentration: 8mM,0.923 ± 0.087
same,NP40-soluble protein abundance,[3]; concentration: 10mM,0.941 ± 0.068
same,NP40-soluble protein abundance,[4]; concentration: 0.1mM,1.06 ± 0.15
same,NP40-soluble protein abundance,[4]; concentration: 0.5mM,1 ± 0.084
same,NP40-soluble protein abundance,[4]; concentration: 1mM,1.03 ± 0.086
same,NP40-soluble protein abundance,[4]; concentration: 2mM,1.1 ± 0.14
same,NP40-soluble protein abundance,[4]; concentration: 4mM,1.13 ± 0.094
same,NP40-soluble protein abundance,[4]; concentration: 6mM,1.12 ± 0.065
same,NP40-soluble protein abundance,[4]; concentration: 8mM,1.09 ± 0.047
same,NP40-soluble protein abundance,[4]; concentration: 10mM,1.15 ± 0.095
same,NP40-soluble protein abundance,[5]; concentration: 0.1mM,0.98 ± 0.019
same,NP40-soluble protein abundance,[5]; concentration: 0.5mM,1.01 ± 0.077
same,NP40-soluble protein abundance,[5]; concentration: 1mM,0.907 ± 0.043
same,NP40-soluble protein abundance,[5]; concentration: 2mM,0.975 ± 0.082
same,NP40-soluble protein abundance,[5]; concentration: 4mM,0.953 ± 0.062
same,NP40-soluble protein abundance,[5]; concentration: 6mM,0.944 ± 0.075
same,NP40-soluble protein abundance,[5]; concentration: 8mM,0.922 ± 0.023
same,NP40-soluble protein abundance,[5]; concentration: 10mM,0.92 ± 0.08

# Part of the list above in another layout.
compound	measurement	setting	value
Nc1nc2c(ncn2[C@@H]2O[C@H](COP(=O)(O)OP(=O)(O)OP(=O)(O)O)[C@@H](O)[C@H]2O)c(=O)[nH]1 [guanosine triphosphate]	NP40-soluble protein abundance	[1]; concentration: 0.1mM	0.944 ± 0.023
same	NP40-soluble protein abundance	[3]; concentration: 0.1mM	0.966 ± 0.074
same	NP40-soluble protein abundance	[3]; concentration: 0.5mM	0.957 ± 0.093
